Measurements reported in PubChem BioAssay AID1508597 (Cure First, 2020)

Purpose: 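Survival screen with siRNA in ovarian cancer cells derived from patients, with or without rucaparib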 (primary screen)
System: human ovarian carcinoma lines grown from tumours: OCI-P5x (papillary serous) and OCI-C5x (clear cell)
Reagent: siRNA pool against human genes, 1.25 pmol siRNA per well
Timing: 72 h or 96 h, depending on the cell culture
Conditions: rucaparib 20 µM (about IC30) or vehicle, present until read-out
Rucaparib or vehicle: Vehicle
Cell line: OCI-P5x (serous)
Read-out: 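Luminescent ATP-based viability assay read 72 or 96 h after transfection, depending on culture, given as normalised percent viability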
Scale: viability, normalised: higher = more viable cells remaining
Hit rule: 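Active when normalised viability falls below 80 percent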
Meaning of the calls: active = viability under 80%; inactive = viability 80% or more
Shown is a random part of the about 2,100 reagents, under one of the conditions tested. 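Calls flag viability under 80% in either arm, not effects specific to rucaparib; the reference for percent is not stated.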 Unmarked entries are inactive. Some reagents were tested in more than one well and are listed for each. Not given: the 100% reference.

| target | technical replicate | viability, normalised (%) |
| --- | --- | --- |
| NHERF1 | 1 | 46.1 (active) |
| NHERF1 | 2 | 43.2 (active) |
| NHERF1 | 3 | 45.3 (active) |
| CDKL4 | 1 | 116 |
| CDKL4 | 2 | 106 |
| CDKL4 | 3 | 108 |
| PBRM1 | 1 | 50.7 (active) |
| PBRM1 | 2 | 53.5 (active) |
| PBRM1 | 3 | 77.1 (active) |
| RPS6KB1 | 1 | 58.5 (active) |
| RPS6KB1 | 1 | 59.6 (active) |
| RPS6KB1 | 2 | 61.4 (active) |
| RPS6KB1 | 2 | 56.4 (active) |
| RPS6KB1 | 3 | 67.3 (active) |
| RPS6KB1 | 3 | 54.8 (active) |
| PRKD1 | 1 | 75.7 (active) |
| PRKD1 | 2 | 77.7 (active) |
| PRKD1 | 3 | 74.2 (active) |
| RPS3A | 1 | 51.4 (active) |
| RPS3A | 2 | 51 (active) |
| RPS3A | 3 | 49.8 (active) |
| NRBP2 | 1 | 74.1 (active) |
| NRBP2 | 2 | 53.7 (active) |
| NRBP2 | 3 | 64.3 (active) |
| MAST4 | 1 | 77 (active) |
| MAST4 | 2 | 79.8 (active) |
| MAST4 | 3 | 71.9 (active) |
| IRAK2 | 1 | 83.6 |
| IRAK2 | 2 | 70.8 (active) |
| IRAK2 | 3 | 73.1 (active) |
| MAP3K4 | 1 | 87.5 |
| MAP3K4 | 2 | 76.1 (active) |
| MAP3K4 | 3 | 67.2 (active) |
| HERC3 | 1 | 37.4 (active) |
| HERC3 | 2 | 65.9 (active) |
| HERC3 | 3 | 112 |
| DDX53 | 1 | 51.5 (active) |
| DDX53 | 2 | 52.8 (active) |
| DDX53 | 3 | 64.5 (active) |
| MNAT1 | 1 | 79.9 (active) |
| MNAT1 | 2 | 88.7 |
| MNAT1 | 3 | 85.7 |
| POLL | 1 | 64.5 (active) |
| POLL | 2 | 63.4 (active) |
| POLL | 3 | 61.9 (active) |
| BMPR2 | 1 | 77.3 (active) |
| BMPR2 | 2 | 67.2 (active) |
| BMPR2 | 3 | 69.9 (active) |
| SSB | 1 | 44.5 (active) |
| SSB | 2 | 47.7 (active) |
| SSB | 3 | 99 |
| CDIPT | 1 | 83.6 |
| CDIPT | 2 | 90 |
| CDIPT | 3 | 78.5 (active) |
| SIRT3 | 1 | 46.1 (active) |
| SIRT3 | 2 | 47.8 (active) |
| SIRT3 | 3 | 66.3 (active) |
| ZNF384 | 1 | 55.2 (active) |
| ZNF384 | 2 | 57.7 (active) |
| ZNF384 | 3 | 57.3 (active) |
| TLR7 | 1 | 74.5 (active) |
| TLR7 | 2 | 70.3 (active) |
| TLR7 | 3 | 91.3 |
| DDX3X | 1 | 53 (active) |
| DDX3X | 1 | 64.8 (active) |
| DDX3X | 2 | 57 (active) |
| DDX3X | 2 | 50.5 (active) |
| DDX3X | 3 | 54.5 (active) |
| DDX3X | 3 | 50 (active) |
| CBX7 | 1 | 48.5 (active) |
| CBX7 | 2 | 45 (active) |
| CBX7 | 3 | 98.4 |
| TDG | 1 | 98.5 |
| TDG | 2 | 89.3 |
| TDG | 3 | 81.1 |

Targets listed so far whose gene name starts with N or n (6):
| target | technical replicate | viability, normalised (%) |
| --- | --- | --- |
| NHERF1 | 1 | 46.1 (active) |
| NHERF1 | 2 | 43.2 (active) |
| NHERF1 | 3 | 45.3 (active) |
| NRBP2 | 1 | 74.1 (active) |
| NRBP2 | 2 | 53.7 (active) |
| NRBP2 | 3 | 64.3 (active) |
